From patent US12459974B2, “Bicyclic peptide ligands specific for Nectin-4” (priority 2018, dated 2025)
This continues a long series; more values of the same kind are listed elsewhere. *1 amine or outer side, *2 acyl side, *3 side chain or, on linkers, in order; H or OH if unused. Where a SMILES comes first, the peptide text is derived from it. Bridges are numbered along the chain shown (N, C = ends). Roman numbers before positions name the chains, in order. [ ]: non-standard residue; d: D form. The star is where a group is joined. ξ: configuration not given here. TATA = O=C(CC[*:1])N1CN(C(=O)CC[*:2])CN(C(=O)CC[*:3])C1; Dolaproine = CO[C@@H]([C@@H]1CCCN1)[C@@H](C)C(=O)O; X1 = CC[C@H](C)C(C(CC(=O)[*:2])OC)N(C)[*:1]; 1Nal = N[C@@H](Cc1cccc2ccccc12)C(=O)O; X3 = O=C(CCCC(=O)[*:2])NCCC(=O)[*:1]; PABC = O=C(OCc1ccc(N[*:1])cc1)[*:2]; Hyp = O=C(O)[C@@H]1C[C@@H](O)CN1; hArg = N=C(N)NCCCC[C@H](N)C(=O)O; Cit = NC(=O)NCCC[C@H](N)C(=O)O; X2 = CC(N*)[C@@H](O)c1ccccc1; ξNMeV = CNC(C(=O)O)C(C)C; ξV = CC(C)C(N)C(=O)O; Sar = CNCC(=O)O

Columns and labels:
[1] = tested on: MDA-MB-468 xenograft; assay: Example 9.9: in vivo efficacy of BCY8245 alone or with BCY8234 in MDA-MB-468 xenograft (large tumors) in Balb/c nude mice; parameters: species or system Mus Musculus
[2] = tested on: MDA-MB-468 xenograft; assay: Example 9.4: in vivo efficacy in MDA-MB-468 xenograft in Balb/c nude mice; details: iv, day 21, mean ± SEM
[3] = tested on: MDA-MB-468 xenograft; assay: Example 9.8: in vivo efficacy of BCY8245, BCY8781 and BCY8245 with BCY8234 in MDA-MB-468 xenograft in Balb/c nude mice; parameters: species or system Mus Musculus; details: qw

Which results are given for CC[C@H](C)C(C(CC(=O)N1CCC[C@H]1[C@H](OC)[C@@H](C)C(=O)NC(C)[C@@H](O)c1ccccc1)OC)N(C)C(=O)[C@@H](NC(=O)C(C(C)C)N(C)C(=O)OCc1ccc(NC(=O)[C@H](CCCNC(N)=O)NC(=O)C(NC(=O)CCCC(=O)NCCC(=O)N(C)CC(=O)N(C)CC(=O)N(C)CC(=O)N(C)CC(=O)N(C)CC(=O)N(C)CC(=O)N(C)CC(=O)N(C)CC(=O)N(C)CC(=O)N(C)CC(=O)N[C@H]2CSCCC(=O)N3CN4CN(C3)C(=O)CCSC[C@H](NC(=O)[C@@H](CC(=O)O)NC(=O)[C@H](Cc3cccc5ccccc35)NC(=O)[C@@H]3CCCN3C2=O)C(=O)N[C@@H](CCSC)C(=O)N[C@@H](CCCCNC(=N)N)C(=O)N[C@@H](CC(=O)O)C(=O)N[C@@H](Cc2c[nH]c3ccccc23)C(=O)N[C@@H](CO)C(=O)N[C@@H]([C@@H](C)O)C(=O)N2CCC[C@H]2C(=O)N2C[C@H](O)C[C@H]2C(=O)N[C@@H](Cc2c[nH]c3ccccc23)C(=O)N[C@H](C(N)=O)CSCCC4=O)C(C)C)cc1)C(C)C (stereo partly drawn) [BCY8245, MMAE-PABC-Cit-Val-Glutaryl-BCY8234] (I: [Sar][Sar][Sar][Sar][Sar][Sar][Sar][Sar][Sar][Sar]CP[1Nal][dD]CM[hArg]DWSTP[Hyp]WC-NH2 / II: [ξV][Cit][PABC][ξNMeV]V[X1][Dolaproine]-X2; linker I:11-I:15-I:25 via TATA; linker I:N-II:N via X3)?
Tumor volume ([1]; 1 mpk, qw, day 28, Mean ± SEM): 384 ± 41 mm^3; Tumor volume ([1]; 3 mpk, qw, day 28, Mean ± SEM): 50 ± 17 mm^3; Tumor volume ([1]; Gr. 3, 3 mpk, qw, day 79): 221 mm^3; Tumor volume ([1]; Gr. 3, 3 mpk, qw, day 82): 198 mm^3; Tumor volume ([1]; Gr. 3, 3 mpk, qw, day 86): 185 mm^3; Tumor volume ([1]; Gr. 3, 3 mpk, qw, day 89): 180 mm^3; Tumor volume ([1]; Gr. 3, 3 mpk, qw, day 93): 155 mm^3; Tumor volume ([1]; Gr. 3, 3 mpk, qw, day 96): 166 mm^3; Tumor volume ([1]; Gr. 3, 3 mpk, qw, day 100): 221 mm^3; Tumor volume ([1]; Gr. 3, 3 mpk, qw, day 103): 250 mm^3; Tumor volume ([1]; Group1, Vehicle, dosed with 5 mpk BCY8245 on PG-D28, day 65): 316 ± 212 mm^3; Tumor volume ([1]; Group1, Vehicle, dosed with 5 mpk BCY8245 on PG-D28, day 68): 347 ± 215 mm^3; Tumor volume ([1]; Group1, Vehicle, dosed with 5 mpk BCY8245 on PG-D28, day 72): 368 ± 242 mm^3; Tumor volume ([1]; Group1, Vehicle, dosed with 5 mpk BCY8245 on PG-D28, day 75): 385 ± 245 mm^3; Tumor volume ([1]; Group 2, 1 mpk, change in 5 mpk on PG-D28, day 62): 145 ± 29 mm^3; Tumor volume ([1]; Group 2, 1 mpk, change in 5 mpk on PG-D28, day 65): 163 ± 31 mm^3; Tumor volume ([1]; Group 2, 1 mpk, change in 5 mpk on PG-D28, day 68): 173 ± 32 mm^3; Tumor volume ([1]; Group 2, 1 mpk, change in 5 mpk on PG-D28, day 72): 180 ± 36 mm^3; Tumor volume ([1]; Group 2, 1 mpk, change in 5 mpk on PG-D28, day 75): 196 ± 40 mm^3; Tumor volume ([1]; Group3, 3 mpk, qw, day 62): 146 ± 70 mm^3; Tumor volume ([1]; Group3, 3 mpk, qw, day 65): 147 ± 74 mm^3; Tumor volume ([1]; Group3, 3 mpk, qw, day 68): 155 ± 81 mm^3; Tumor volume ([1]; Group3, 3 mpk, qw, day 72): 170 ± 89 mm^3; Tumor volume ([1]; Group3, 3 mpk, qw, day 75): 223 ± 115 mm^3; Tumor volume ([2]; 3 mpk, biw): 22 ± 4 mm^3; Tumor volume ([2]; 3 mpk, qw): 85 ± 31 mm^3; Tumor volume ([2]; 5 mpk, qw): 29 ± 3 mm^3; Tumor volume ([3]; 0.3 mpk, i.v., day 0 after the start of treatment): 188 mm^3; Tumor volume ([3]; 0.3 mpk, i.v., day 2): 189 mm^3; Tumor volume ([3]; 0.3 mpk, i.v., day 4): 211 mm^3; Tumor volume ([3]; 0.3 mpk, i.v., day 7): 235 mm^3; Tumor volume ([3]; 0.3 mpk, i.v., day 9): 252 mm^3; Tumor volume ([3]; 0.3 mpk, i.v., day 11): 253 mm^3; Tumor volume ([3]; 0.3 mpk, i.v., day 14): 275 mm^3; Tumor volume ([3]; 0.3 mpk, i.v., day 16): 277 mm^3; Tumor volume ([3]; 0.3 mpk, i.v., day 18): 295 mm^3; Tumor volume ([3]; 0.3 mpk, i.v., day 21): 300 mm^3; Tumor volume ([3]; 0.3 mpk, Mean ± SEM): 300 ± 27 mm^3; Tumor volume ([3]; 0.3 mpk, day 23): 284 ± 14 mm^3; Tumor volume ([3]; 0.3 mpk, day 25): 268 ± 10 mm^3; Tumor volume ([3]; 0.3 mpk, day 28): 254 ± 15 mm^3; Tumor volume ([3]; 0.3 mpk, day 30): 240 ± 21 mm^3; Tumor volume ([3]; 0.3 mpk, day 32): 241 ± 32 mm^3; Tumor volume ([3]; 0.3 mpk, day 35): 237 ± 33 mm^3; Tumor volume ([3]; 0.3 mpk, day 37): 246 ± 40 mm^3; Tumor volume ([3]; 0.3 mpk, day 39): 248 ± 37 mm^3; Tumor volume ([3]; 0.3 mpk, day 42): 245 ± 48 mm^3; Tumor volume ([3]; 0.3 mpk, day 44): 251 ± 48 mm^3; Tumor volume ([3]; 0.3 mpk, day 46): 248 ± 61 mm^3; Tumor volume ([3]; 0.3 mpk, day 49): 250 ± 65 mm^3; Tumor volume ([3]; 0.3 mpk, day 51): 264 ± 68 mm^3; Tumor volume ([3]; 0.3 mpk, day 53): 268 ± 81 mm^3; Tumor volume ([3]; 0.3 mpk, day 56): 271 ± 87 mm^3; Tumor volume ([3]; 0.3 mpk, day 58): 267 ± 95 mm^3; Tumor volume ([3]; 0.3 mpk, day 60): 270 ± 108 mm^3; Tumor volume ([3]; 0.3 mpk, day 64): 276 ± 132 mm^3; Tumor volume ([3]; 0.3 mpk, day 67): 269 ± 137 mm^3; Tumor volume ([3]; 0.3 mpk, day 71): 280 ± 155 mm^3; Tumor volume ([3]; 0.3 mpk, day 74): 295 ± 167 mm^3; Tumor volume ([3]; 0.3 mpk, day 78): 313 ± 194 mm^3; Tumor volume ([3]; 0.3 mpk, day 81): 291 ± 192 mm^3; Tumor volume ([3]; 0.3 mpk, day 84): 301 ± 194 mm^3; Tumor volume ([3]; 0.3 mpk, day 88): 277 ± 194 mm^3; Tumor volume ([3]; 0.3 mpk, day 91): 293 ± 209 mm^3; Tumor volume ([3]; 1 mpk, i.v., day 0 after the start of treatment): 185 mm^3; Tumor volume ([3]; 1 mpk, i.v., day 2): 187 mm^3; Tumor volume ([3]; 1 mpk, i.v., day 4): 183 mm^3; Tumor volume ([3]; 1 mpk, i.v., day 7): 190 mm^3; Tumor volume ([3]; 1 mpk, i.v., day 9): 205 mm^3; Tumor volume ([3]; 1 mpk, i.v., day 11): 195 mm^3; Tumor volume ([3]; 1 mpk, i.v., day 14): 201 mm^3; Tumor volume ([3]; 1 mpk, i.v., day 16): 197 mm^3; Tumor volume ([3]; 1 mpk, i.v., day 18): 218 mm^3; Tumor volume ([3]; 1 mpk, i.v., day 21): 204 mm^3; Tumor volume ([3]; 1 mpk, Mean ± SEM): 204 ± 19 mm^3; Tumor volume ([3]; 1 mpk, day 23): 200 ± 16 mm^3; Tumor volume ([3]; 1 mpk, day 25): 199 ± 13 mm^3; Tumor volume ([3]; 1 mpk, day 28): 210 ± 6 mm^3; Tumor volume ([3]; 1 mpk, day 30): 221 ± 14 mm^3
